Assay results published in the supplement of paper PMC11732987, “Enantioselective OTUD7B fragment discovery through chemoproteomics screening and high-throughput optimisation” (Communications Chemistry, 2025).
The list shows a part of the results. The data scatter; read single values as rough.

Protein sequences, listed by entry. Tags and fused reporters are not part of them. Lines headed by an entry give the natural chain unless they say otherwise; changes in a name come on top.
UniProt Q99832: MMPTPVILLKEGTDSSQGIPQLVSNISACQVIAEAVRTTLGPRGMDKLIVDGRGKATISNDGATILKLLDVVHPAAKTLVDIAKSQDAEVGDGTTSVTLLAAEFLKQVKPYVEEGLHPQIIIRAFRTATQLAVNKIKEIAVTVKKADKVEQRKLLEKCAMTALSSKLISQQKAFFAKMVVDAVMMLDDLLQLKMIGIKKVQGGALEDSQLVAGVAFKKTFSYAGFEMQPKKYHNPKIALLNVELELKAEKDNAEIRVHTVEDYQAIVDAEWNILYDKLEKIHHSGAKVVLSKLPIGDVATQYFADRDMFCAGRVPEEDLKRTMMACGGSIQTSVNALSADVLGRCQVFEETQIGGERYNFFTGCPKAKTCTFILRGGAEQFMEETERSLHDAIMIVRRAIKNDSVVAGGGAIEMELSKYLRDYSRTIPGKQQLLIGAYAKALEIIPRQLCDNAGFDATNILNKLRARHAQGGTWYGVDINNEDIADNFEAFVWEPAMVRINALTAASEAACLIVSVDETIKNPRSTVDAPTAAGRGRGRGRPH

What follows are molecules tested against T1, CCT7 C29 (UniProt Q99832) (assay: log2 mean competition ratio of IA-DTB cysteine labelling (DMSO/compound) (log2 ratio); higher = stronger cysteine engagement by compound). Conditions: 50 µM; treatment time: 4 h; cell line lysate: HEK293T.
T1 sequence (whole entry): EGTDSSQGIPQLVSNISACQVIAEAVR
Description: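 IA-DTB competitive cysteine chemoproteomics in HEK293T RIPA lysate. Lysates were treated with compound 29 or 30 at 50 or 200 µM for 4 h, then IA-DTB (500 µM, 1 h), trypsin-digested, NeutrAvidin-enriched and analysed by diaPASEF. Competition ratio = intensity DMSO / intensity compound (n=4 treated, n=64 DMSO); binding: mean log2 CR ≥ 1 and p ≤ 0.05 plus QC filters. Target is the cysteine site.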

SMILES | log2 mean competition ratio
O=C(CCl)N[C@H]1CCCc2ccccc21 | 0.137
O=C(CCl)N[C@@H]1CCCc2ccccc21 | 0.147

Same assay, conditions: 200 µM; treatment time: 4 h; cell line lysate: HEK293T

SMILES | log2 mean competition ratio
O=C(CCl)N[C@H]1CCCc2ccccc21 | -0.189
O=C(CCl)N[C@@H]1CCCc2ccccc21 | -0.131
